Reference: PubChem BioAssay AID1259405 (NCATS, 2018)
The whole screen tested about 50,000 reagents; this is a random part of them. About 4,000 of them (8%) were called active. 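Mouse siRNA library applied to hamster cells; one well for each siRNA.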 Reagents against one gene are numbered here.

Screen: 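Knock-downs that lift recombinant protein yield in hamster ovary cells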 (primary screen)
Cell system: Chinese hamster CHO-K1 ovary cells with stable secreted eGFP expression
Reagents: single siRNA against mouse genes, 0.8 pmol siRNA per well (2 µl of 400 nM stock)
Duration: 3 days
Detection: 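Per-well intracellular GFP measured by laser scanning cytometry, plus viability from ATP luminescence, each relative to plate median of non-targeting control wells, in %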
Reading the numbers: GFP, % of control: higher = more GFP per well, higher productivity; viability (ATP), % of control: higher = more viable cells (more ATP)
Call rule: 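Called active when intracellular GFP, relative to negative control, is at or above 120%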

Which result is listed for Arid3b #1?
GFP, % of control: 30.1; viability (ATP), % of control: 38; call: inactive

What is on record for Arid3b #2?
GFP, % of control: 110; viability (ATP), % of control: 118; call: inactive

For Fgf5 #1, how do the results read?
GFP, % of control: 81.4; viability (ATP), % of control: 25; call: inactive

What did the screen give for Fgf5 #2?
GFP, % of control: 67.6; viability (ATP), % of control: 64; call: inactive

What did the screen give for Fgf5 #3?
GFP, % of control: 69.9; viability (ATP), % of control: 67.1; call: inactive

What is on record for Vegfa #1?
GFP, % of control: 64.6; viability (ATP), % of control: 64.5; call: inactive

How did the screen score Vegfa #2?
GFP, % of control: 51.4; viability (ATP), % of control: 35; call: inactive

With Vegfa #3, how do the results read?
GFP, % of control: 76.6; viability (ATP), % of control: 51.7; call: inactive

For Tsc22d1 #1, how do the results read?
GFP, % of control: 54.5; viability (ATP), % of control: 56.6; call: inactive

How did the screen score Tsc22d1 #2?
GFP, % of control: 89.2; viability (ATP), % of control: 90.8; call: inactive

With Tsc22d1 #3, what does the deposit list?
GFP, % of control: 62.7; viability (ATP), % of control: 54.5; call: inactive

How did the screen score Gemin8 #1?
GFP, % of control: 51.8; viability (ATP), % of control: 35; call: inactive

For Gemin8 #2, what does the deposit list?
GFP, % of control: 69.5; viability (ATP), % of control: 69.6; call: inactive

With Gemin8 #3, what does the deposit list?
GFP, % of control: 117; viability (ATP), % of control: 146; call: inactive

For Trpc4ap #1, what does the deposit list?
GFP, % of control: 77.5; viability (ATP), % of control: 88.5; call: inactive

What did the screen give for Trpc4ap #2?
GFP, % of control: 91.9; viability (ATP), % of control: 87.7; call: inactive

What is on record for Trpc4ap #3?
GFP, % of control: 99.7; viability (ATP), % of control: 97.2; call: inactive

How did the screen score Rpl18 #1?
GFP, % of control: 46.8; viability (ATP), % of control: 24.6; call: inactive

For Rpl18 #2, how do the results read?
GFP, % of control: 58.5; viability (ATP), % of control: 42.1; call: inactive

How did the screen score Rpl18 #3?
GFP, % of control: 77.6; viability (ATP), % of control: 60.3; call: inactive

For Hk2, what does the deposit list?
GFP, % of control: 127; viability (ATP), % of control: 77.3; call: active

With Usp53 #1, how do the results read?
GFP, % of control: 87.9; viability (ATP), % of control: 70; call: inactive

For Usp53 #2, what does the deposit list?
GFP, % of control: 67.4; viability (ATP), % of control: 67; call: inactive

Which result is listed for Usp53 #3?
GFP, % of control: 16.2; viability (ATP), % of control: 37.8; call: inactive

For Synpo2 #1, how do the results read?
GFP, % of control: 91.3; viability (ATP), % of control: 54.5; call: inactive

What is on record for Synpo2 #2?
GFP, % of control: 50.1; viability (ATP), % of control: 49; call: inactive

Which result is listed for Synpo2 #3?
GFP, % of control: 54.4; viability (ATP), % of control: 61.7; call: inactive

How did the screen score Dusp22 #1?
GFP, % of control: 138; viability (ATP), % of control: 77; call: active

For Dusp22 #2, what was measured?
GFP, % of control: 73; viability (ATP), % of control: 58.4; call: inactive

What did the screen give for Dusp22 #3?
GFP, % of control: 53.2; viability (ATP), % of control: 94.2; call: inactive

What is on record for Or51l4 #1?
GFP, % of control: 83.2; viability (ATP), % of control: 71.6; call: inactive

What did the screen give for Or51l4 #2?
GFP, % of control: 74.2; viability (ATP), % of control: 66.9; call: inactive

For Or51l4 #3, what was measured?
GFP, % of control: 58.9; viability (ATP), % of control: 73.5; call: inactive

How did the screen score Sh3pxd2a #1?
GFP, % of control: 62.8; viability (ATP), % of control: 72.1; call: inactive

With Sh3pxd2a #2, what was measured?
GFP, % of control: 60.5; viability (ATP), % of control: 70.6; call: inactive

For Sh3pxd2a #3, how do the results read?
GFP, % of control: 89.7; viability (ATP), % of control: 79.7; call: inactive

For Sh3pxd2a #4, what does the deposit list?
GFP, % of control: 17.9; viability (ATP), % of control: 40.5; call: inactive

With Sh3pxd2a #5, what does the deposit list?
GFP, % of control: 69.2; viability (ATP), % of control: 79.8; call: inactive

For Sh3pxd2a #6, what was measured?
GFP, % of control: 107; viability (ATP), % of control: 111; call: inactive

Which result is listed for Chrnd #1?
GFP, % of control: 97.2; viability (ATP), % of control: 102; call: inactive

How did the screen score Chrnd #2?
GFP, % of control: 77.8; viability (ATP), % of control: 61.6; call: inactive

What did the screen give for Chrnd #3?
GFP, % of control: 49.5; viability (ATP), % of control: 54.4; call: inactive

4 entries from above, set out differently:
Target gene | reagent no. | GFP, % of control | viability (ATP), % of control | call
Vegfa | 1 | 64.6 | 64.5 | inactive
Vegfa | 2 | 51.4 | 35 | inactive
Vegfa | 3 | 76.6 | 51.7 | inactive
Tsc22d1 | 1 | 54.5 | 56.6 | inactive
